Data from publication PMC8001000, “Pitfalls in the Immunochemical Determination of β-Lactam Antibiotics in Water” (Antibiotics, 2021).

Test system: monoclonal mouse anti-AMX antibody A1463 (clone 1.BB.832)
Assay: indirect competitive ELISA (calibration curves of β-lactams and hydrolysis products)
Format: binding
Method: For the preparation of standards (calibrators), stock solutions of each compound with a mass concentration of approximately 1 g/L were prepared gravimetrically by weighing the respective compound and amount of solvent. Solvents for these stock solutions were ethanol for amoxicillin piperazine-2,5-dione and 3-(4-hydroxyphenyl)pyrazin-2-ol, or Milli-Q water for all other compounds. Standard solutions of each compound were prepared volumetrically by serial dilution of the respective stock solution in Milli-Q water. All standards and stock solutions were stored at 4 °C in the amber glass vials.
For hydrolysis, standards and samples were diluted in 0.1 M sodium hydroxide solution (1:1) the day before analysis in the assay, i.e., the day of coating (see below), and stored at 4 °C until the next day. Samples for reference analysis without hydrolysis were diluted in Milli-Q water (1:1) prior to analysis.
Each cavity of a 96-well microplate was coated with AMX-HSA (or alternatively AMX-BSA) in PBS (47.619 ng/L, 200 µL/well) and incubated for 18 h at RT with shaking at 750 rpm. Afterwards the plate was washed three times with washing buffer (1:60 dilution of washing buffer 60x in Milli-Q water) and the cavities were blocked with 0.1% (w/v) casein in PBS (200 µL/well) for 1 h at 750 rpm and RT. […] Optical density was read at RT at a wavelength of 450 nm with reference at 620 nm. Data points were plotted in Origin® 2019 (OriginLab, Northampton, MA, USA), calibration curves were obtained by fitting a four-parameter logistic function to the measured data points and sample concentrations were determined by correlating concentration values of hydrolyzed standards with O.D. values of hydrolyzed and non-hydrolyzed samples. Each standard (8 per plate) and sample (24 per plate) was analyzed in triplicate with random distribution across the plate to reduce edge effects.

[1] = error of concentration below 30%, precision profile, hydrolyzed standards

CC1(C)S[C@@H]2[C@H](NC(=O)[C@H](N)c3ccc(O)cc3)C(=O)N2[C@H]1C(=O)O [AMX, amoxicillin]
measurement range of the assay, lower limit [1]: 3 nM | measurement range of the assay, upper limit [1]: 7 µM

CC1(C)S[C@@H]2[C@H](NC(=O)C(C(=O)O)c3ccccc3)C(=O)N2[C@H]1C(=O)O (stereo partly drawn) [CRB, carbenicillin]
limit of detection (LOD) in the immunoassay (after hydrolysis): 0.2 nmol/L
